Measured values taken from the supplement of paper PMC11542785.
Where a name gives a salt, the structure may show the parent alone. This is one part of the list. Single values are uncertain, as repeats are few or missing.

Test system: Drosophila melanogaster DPAGT1 (Alg7) RNAi eye model
Experiment: eye size Z-score vs DMSO-treated DPAGT1 model flies; higher = larger eye (suppression of DPAGT1 phenotype)
Conditions: 5 uM

Nc1nc(N)nc(-c2cc(Cl)ccc2Cl)n1 [Irsogladine maleate]
eye size Z-score: 0.86

CCN1CCCC1CNC(=O)c1cc(S(=O)(=O)CC)c(N)cc1OC (centres undefined) [Amisulpride]
eye size Z-score: 0.15

COc1c(O)cc2c(c1O)[C@@H]1O[C@H](CO)[C@@H](O)[C@H](O)[C@H]1OC2=O [Bergenin]
eye size Z-score: -0.18

CC(C)[C@H]1CC[C@H](C(=O)N[C@H](Cc2ccccc2)C(=O)O)CC1 [Nateglinide]
eye size Z-score: 0.54

COc1ccccc1OCCNCC(O)COc1cccc2[nH]c3ccccc3c12 (centres undefined) [Carvedilol]
eye size Z-score: 0.12

CC(C)c1nc(CN(C)C(=O)N[C@H](C(=O)N[C@@H](Cc2ccccc2)C[C@H](O)[C@H](Cc2ccccc2)NC(=O)OCc2cncs2)C(C)C)cs1 [Ritonavir]
eye size Z-score: -0.76

O=C(NCC1CCCCN1)c1cc(OCC(F)(F)F)ccc1OCC(F)(F)F (centres undefined) [Flecainide acetate]
eye size Z-score: -0.21

CC1CCc2cc(F)cc3c(=O)c(C(=O)O)cn1c23 (centres undefined) [Flumequine]
eye size Z-score: 1.9

CCCCOc1ccc(OCCCN2CCOCC2)cc1 [Pramoxine hydrochloride]
eye size Z-score: 0.02

COC(=O)Nc1nc2cc(C(=O)c3ccc(F)cc3)ccc2[nH]1 [Flubendazol]
eye size Z-score: -0.66

CC(C)(C)NC(=O)[C@@H]1CN(Cc2cccnc2)CCN1C[C@@H](O)C[C@@H](Cc1ccccc1)C(=O)N[C@H]1c2ccccc2C[C@H]1O [Indinavir sulfate]
eye size Z-score: -0.85

O=C(O[C@@H]1C[C@@H]2C[C@H]3C[C@H](C1)N2CC3=O)c1c[nH]c2ccccc12 [Dolasetron mesilate]
eye size Z-score: -0.44

COc1ccc2cc1Oc1ccc(cc1)C[C@H]1c3c(cc4c(c3Oc3cc5c(cc3OC)CCN(C)[C@@H]5C2)OCO4)CCN1C [Cepharanthine]
eye size Z-score: 1.28

CC(C)(C)NCC(O)c1ccc(O)c(CO)c1 (centres undefined) [Salbutamol]
eye size Z-score: -0.42

Cc1c(OCC(F)(F)F)ccnc1C[S+]([O-])c1nc2ccccc2[nH]1 (centres undefined) [Lansoprazole]
eye size Z-score: -0.1

Cn1c(=O)c2c(ncn2C)n(C)c1=O [Caffeine]
eye size Z-score: -0.28

CN[C@@H]1CCc2[nH]c3ccc(C(N)=O)cc3c2C1 [Frovatriptan succinate]
eye size Z-score (female): 0.29

CN(C)CCCC1(c2ccc(F)cc2)OCc2cc(C#N)ccc21 (centres undefined) [Citalopram hydrobromide]
eye size Z-score: 0.55

CCCC(CCC)C(=O)O [Valproic acid]
eye size Z-score: 0.66

O=C(O)CNC(=O)C(CS)Cc1ccccc1 (centres undefined) [Thiorphan]
eye size Z-score: -0.32

Cc1onc(-c2ccccc2)c1C(=O)N[C@@H]1C(=O)N2[C@@H]1SC(C)(C)[C@@H]2C(=O)O [Oxacillin sodium]
eye size Z-score: 1.54

OCC(O)CN1CCN(c2ccccc2)CC1 (centres undefined) [Dropropizine]
eye size Z-score: -0.13

CN(C)CCC(c1ccc(Cl)cc1)c1ccccn1 (centres undefined) [Chlorpheniramine maleate]
eye size Z-score: -0.14

COc1cc(N)c(Cl)cc1C(=O)NC1CCN(CCCOc2ccc(F)cc2)CC1OC (centres undefined) [Cisapride]
eye size Z-score: 0.13

COC1=CC(=O)C[C@@H](C)[C@]12Oc1c(Cl)c(OC)cc(OC)c1C2=O [Griseofulvin]
eye size Z-score: -0.06

CC(C)(C)C(O)/C=C/c1ccc2c(c1)OCO2 (centres undefined) [Stiripentol]
eye size Z-score: -0.07

CCN(CCCc1ccccc1)CCCc1ccccc1 [Alverine citrate salt]
eye size Z-score: 0.76

O=P(O)(O)C(O)(Cc1cccnc1)P(=O)(O)O [Risedronic acid monohydrate]
eye size Z-score: -0.57

CCN(CC)C(=O)N1CCN(C)CC1 [Diethylcarbamazine citrate]
eye size Z-score: -0.26

C=CC[N@@+]12CC[C@@]34c5ccccc5N5/C=C6/[C@H]7C[C@H]8[C@@]9(CC[N@@+]8(CC=C)C/C7=C/CO)c7ccccc7N(/C=C(/[C@@H](C[C@@H]31)/C(=C\CO)C2)[C@H]54)[C@@H]69 [Alcuronium chloride]
eye size Z-score: 0.96

Clc1ccc(COC(Cn2ccnc2)c2ccc(Cl)cc2Cl)cc1 (centres undefined) [Econazole nitrate]
eye size Z-score: -0.2

CO/N=C1\CN(c2nc3c(cc2F)c(=O)c(C(=O)O)cn3C2CC2)CC1CN (centres undefined) [Gemifloxacin mesylate]
eye size Z-score: -0.94

O=C(O)c1cc(=O)c2c(OCC(O)COc3cccc4oc(C(=O)O)cc(=O)c34)cccc2o1 [Cromolyn disodium salt]
eye size Z-score: -0.28

CCCCOc1ccc(CC(=O)NO)cc1 [Bufexamac]
eye size Z-score: 0.55

CC(=O)OC(C)C[N+](C)(C)C (centres undefined) [Methacholine chloride]
eye size Z-score: 1.52

C=CCc1ccccc1OCC(O)CNC(C)C (centres undefined) [Alprenolol hydrochloride]
eye size Z-score: -0.24

NC[C@H]1CC[C@H](C(=O)O)CC1 [Tranexamic acid]
eye size Z-score: 0.21

Oc1c(Cl)cc(Cl)cc1Sc1cc(Cl)cc(Cl)c1O [Bithionol]
eye size Z-score: -0.04

Cc1ccc(O)c([C@H](CCN(C(C)C)C(C)C)c2ccccc2)c1 [Tolterodine tartrate]
eye size Z-score: -0.38

Cc1c(O)cccc1C(=O)N[C@@H](CSc1ccccc1)[C@H](O)CN1C[C@H]2CCCC[C@H]2C[C@H]1C(=O)NC(C)(C)C [Nelfinavir mesylate]
eye size Z-score: -0.82

CCSc1ccc2c(c1)N(CCCN1CCN(C)CC1)c1ccccc1S2 [Thiethylperazine maleate]
eye size Z-score: -0.38

CN(C)CCC(c1ccccc1)c1ccccn1 (centres undefined) [Pheniramine maleate]
eye size Z-score: 1.82

CNCC[C@@H](Oc1cccc2ccccc12)c1cccs1 [(R)-Duloxetine hydrochloride]
eye size Z-score: -0.56

CC(CCc1ccc(O)cc1)NCCc1ccc(O)c(O)c1 (centres undefined) [Dobutamine hydrochloride]
eye size Z-score: 0.47

Nc1ccc(S(N)(=O)=O)cc1 [Sulfanilamide]
eye size Z-score: -0.78

O=c1[nH]c(=O)n([C@H]2C[C@H](O)[C@@H](CO)O2)cc1/C=C/Br [Brivudine]
eye size Z-score: -0.25

CCC(C)(C)c1ccc(CC(C)CN2C[C@@H](C)O[C@@H](C)C2)cc1 (some centres undefined) [Amorolfine hydrochloride]
eye size Z-score: 0.52

CCOC(=O)c1ccc(C#Cc2ccc3c(c2)C(C)(C)CCS3)nc1 [Tazarotene]
eye size Z-score: 0.79

CC[C@]12CCCN3CCc4c(n(c5ccccc45)[C@@](O)(C(=O)OC)C1)[C@@H]32 [Vincamine]
eye size Z-score: -1.01
